Literature values as cited in patent publication US8349899B1 (Arrowhead Center, Inc., priority 2008, dated 2013).
For at least one compound, name, drawing or mass did not settle the structure.

Experiments:
U251 = conditions: Central Nervous System U251; data previously determined; cited from earlier work
COLO 205 = conditions: Colon COLO 205; data previously determined; cited from earlier work
IGROV1 = conditions: Ovarian IGROV1; data previously determined; cited from earlier work
OVCAR-5 = conditions: Ovarian OVCAR-5; data previously determined; cited from earlier work
SF-539 = conditions: Central Nervous System SF-539; data previously determined; cited from earlier work
K-562 = conditions: Leukemia K-562; data previously determined; cited from earlier work
RPMI-8226 = conditions: Leukemia RPMI-8226; data previously determined; cited from earlier work
A549/ATCC = conditions: Non-Small Cell Lung A549/ATCC; data previously determined; cited from earlier work
OVCAR-3 = conditions: Ovarian OVCAR-3; data previously determined; cited from earlier work
SR = conditions: Leukemia SR; data previously determined; cited from earlier work
MOLT-4 = conditions: Leukemia MOLT-4; data previously determined; cited from earlier work
KM12 = conditions: Colon KM12; data previously determined; cited from earlier work
ACHN = conditions: Renal ACHN; data previously determined; cited from earlier work
TK-10 = conditions: Renal TK-10; data previously determined; cited from earlier work
SK-MEL-2 = conditions: Melanoma SK-MEL-2; data previously determined; cited from earlier work
NCI-H226 = conditions: Non-Small Cell Lung NCI-H226; data previously determined; cited from earlier work
UO-31 = conditions: Renal UO-31; data previously determined; cited from earlier work
SK-MEL-28 = conditions: Melanoma SK-MEL-28; data previously determined; cited from earlier work
NCI-H522 = conditions: Non-Small Cell Lung NCI-H522; data previously determined; cited from earlier work
SF-295 = conditions: Central Nervous System SF-295; data previously determined; cited from earlier work
HT29 = conditions: Colon HT29; data previously determined; cited from earlier work
SNB-19 = conditions: Central Nervous System SNB-19; data previously determined; cited from earlier work
CCRF-CEM = conditions: Leukemia CCRF-CEM; data previously determined; cited from earlier work
LOX IMVI = conditions: Melanoma LOX IMVI; data previously determined; cited from earlier work
M14 = conditions: Melanoma M14; data previously determined; cited from earlier work
HL-60(TB) = conditions: Leukemia HL-60(TB); data previously determined; cited from earlier work
HCT-116 = conditions: Colon HCT-116; data previously determined; cited from earlier work

CCOC(=O)C1=C(C)NC(=S)NC1c1cccc(O)c1 (stereo not drawn) [Monastrol]
GI50 (U251): 31.6 µM | GI50 (COLO 205): 31.6 µM | GI50 (IGROV1): 50.1 µM | GI50 (OVCAR-5): 79.4 µM | GI50 (SF-539): 50.1 µM | GI50 (K-562): 31.6 µM | GI50 (RPMI-8226): 31.6 µM | GI50 (A549/ATCC): 50.1 µM | GI50 (OVCAR-3): 50.1 µM | GI50 (SR): 31.6 µM | GI50 (MOLT-4): 31.6 µM | GI50 (KM12): 31.6 µM | GI50 (ACHN): 79.4 µM | GI50 (TK-10): 100 µM | GI50 (SK-MEL-2): 31.6 µM | GI50 (NCI-H226): 50.1 µM | GI50 (UO-31): 100 µM | GI50 (SK-MEL-28): 79.4 µM | GI50 (NCI-H522): 31.6 µM | GI50 (SF-295): 31.6 µM | GI50 (HT29): 79.4 µM | GI50 (SNB-19): 79.4 µM | GI50 (CCRF-CEM): 31.6 µM | GI50 (LOX IMVI): 79.4 µM | GI50 (M14): 25.1 µM | GI50 (HL-60(TB)): 25.1 µM | GI50 (HCT-116): 31.6 µM
